Measured values published in publication doi:10.1101/538223.
No constants are given. Whether binding was seen depends on the method and setting. In cells and extracts the contact can be indirect. Some binding calls cover weakened binding; strength is not graded here. Sequences can lack the tags named with a protein.

Protein sequences, listed by entry. Tags and fused reporters are not part of them.
UniProt Q14155: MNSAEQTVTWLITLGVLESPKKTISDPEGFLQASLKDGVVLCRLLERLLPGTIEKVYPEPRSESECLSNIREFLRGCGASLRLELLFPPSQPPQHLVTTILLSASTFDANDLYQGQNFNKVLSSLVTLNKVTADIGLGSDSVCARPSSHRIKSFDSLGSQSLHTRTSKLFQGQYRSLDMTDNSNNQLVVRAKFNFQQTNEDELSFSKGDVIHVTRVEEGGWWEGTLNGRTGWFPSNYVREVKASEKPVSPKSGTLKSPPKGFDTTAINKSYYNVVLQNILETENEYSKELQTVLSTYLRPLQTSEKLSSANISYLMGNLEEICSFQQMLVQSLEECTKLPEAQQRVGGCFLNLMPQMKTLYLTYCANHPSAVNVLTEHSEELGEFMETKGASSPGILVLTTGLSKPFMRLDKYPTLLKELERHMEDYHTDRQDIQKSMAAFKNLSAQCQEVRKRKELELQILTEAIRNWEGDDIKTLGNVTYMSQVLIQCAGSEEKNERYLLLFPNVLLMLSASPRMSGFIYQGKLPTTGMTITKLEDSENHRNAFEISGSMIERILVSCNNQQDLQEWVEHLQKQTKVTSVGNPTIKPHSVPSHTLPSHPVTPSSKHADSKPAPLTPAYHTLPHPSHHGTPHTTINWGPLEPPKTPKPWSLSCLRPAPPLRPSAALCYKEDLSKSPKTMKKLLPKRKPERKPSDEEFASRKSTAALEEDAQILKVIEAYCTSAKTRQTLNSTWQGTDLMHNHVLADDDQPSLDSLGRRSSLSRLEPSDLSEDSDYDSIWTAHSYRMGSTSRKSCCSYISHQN

Target: T1, human GIT2-long/Flag (human) (UniProt Q14161)
T1 sequence: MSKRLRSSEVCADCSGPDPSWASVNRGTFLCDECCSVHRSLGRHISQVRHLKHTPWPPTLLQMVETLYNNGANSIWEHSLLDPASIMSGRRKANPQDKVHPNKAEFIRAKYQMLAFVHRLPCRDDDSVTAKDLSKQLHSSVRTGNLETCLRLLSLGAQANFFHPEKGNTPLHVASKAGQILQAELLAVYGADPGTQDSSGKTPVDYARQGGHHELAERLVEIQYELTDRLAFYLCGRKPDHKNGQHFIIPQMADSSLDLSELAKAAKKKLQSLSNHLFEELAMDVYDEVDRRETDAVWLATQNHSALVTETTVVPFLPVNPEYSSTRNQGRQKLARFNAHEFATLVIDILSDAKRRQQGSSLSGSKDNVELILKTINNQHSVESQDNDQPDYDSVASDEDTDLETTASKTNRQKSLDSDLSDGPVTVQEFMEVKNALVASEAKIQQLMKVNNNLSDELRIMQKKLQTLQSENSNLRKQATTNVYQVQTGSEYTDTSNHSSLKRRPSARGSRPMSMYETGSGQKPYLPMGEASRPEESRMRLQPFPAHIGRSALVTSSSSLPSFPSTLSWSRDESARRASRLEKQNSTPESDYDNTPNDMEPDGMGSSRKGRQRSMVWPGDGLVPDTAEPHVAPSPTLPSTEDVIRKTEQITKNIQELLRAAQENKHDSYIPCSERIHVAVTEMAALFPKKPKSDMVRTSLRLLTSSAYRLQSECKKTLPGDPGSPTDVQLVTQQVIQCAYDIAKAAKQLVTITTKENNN
Experiment: co-IP

binding: binds
Substance: β-PIX, endogenous (from UniProt Q14155 1-803)
